Data as given in PubChem BioAssay AID493014 (National Center for Advancing Translational Sciences (NCATS), 2011).
This is one part of the list. The main result of the screen is listed elsewhere. These columns were measured beside it and carry no call. Most of these compounds were active or inconclusive in the main read-out, so they are no random draw. The note in brackets gives the kind of curve behind each potency; many fits are weak.

Experiment: qHTS Assay to Find Inhibitors of Chronic Active B-Cell Receptor Signaling
Conditions: ABC-DLBCL IkBa-CBG/CBR reporter, luminescence ratio (green luciferase fused to IkBa over red control in TMD8 lymphoma cells), 4 h
Summary of the method: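 TMD8 ABC-DLBCL cells carrying doxycycline-inducible green luciferase fused to IkappaBalpha plus unfused red luciferase were exposed to compounds (up to 46 uM) for 4 hrs at 37C. Activity came from the overlap-corrected green/red luminescence ratio.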

[1] = measured here: CBR red luminescence, cell number
[2] = measured here: IkBa-CBG green luminescence

| Compound | AC50 [1] | AC50 [2] |
| --- | --- | --- |
| COc1ccc(-c2nc3scc(CCNS(=O)(=O)c4ccc(F)cc4C)n3n2)cc1 | 35.5 µM [falling, single point] |  |
| S=c1[nH]nc(C2CCCCC2)n1/N=C/c1ccc(Cl)cc1 | 22.4 µM [rising, single point] |  |
| COc1cccc(C(=O)Nc2ccc(NC(=O)C3CC3)nc2)c1 | 6.31 µM [falling, full curve] |  |
| COc1ccc(Nc2cc3n(c(=O)n2)CCc2cc(OC)c(OC)cc2-3)cc1 |  | 20 µM [falling, partial curve, poor fit] |
| CCc1nnc(NC(=O)CSc2nnc(C)n2CC2CCCO2)s1 (configuration not stated) | 10.3 µM [falling, partial curve] |  |
| Cc1cc2oc(=O)cc(Cn3ncc(Cl)c(Cl)c3=O)c2cc1Cl | 1 µM [falling, full curve] |  |
| O=C(Nc1cccc(-c2nc3ccccc3[nH]2)c1)c1ccco1 | 5.62 µM [falling, full curve] |  |
| CCS(=O)(=O)N1CCN(C(=O)c2ccc(-c3ccccc3)cc2)CC1 | 3.16 µM [rising, partial curve, poor fit] |  |
| Fc1ccccc1/C=N/n1cnnc1 | 0.731 µM [rising, partial curve, poor fit] |  |
| c1ccc(C[n+]2c(-c3ccccc3)csc2Nc2ccccc2)cc1 | 7.31 µM [rising, partial curve, poor fit] |  |
| CC(C)c1ccc(NC(=O)CNCC(c2ccccc2)N(C)C)cc1 (configuration not stated) | 12.6 µM [falling, single point] |  |
| O=C(C1CC1)N1CCC(c2nc(-c3ccc(S(=O)(=O)NCC4CCCO4)cc3)no2)CC1 (configuration not stated) | 1.64 µM [falling, partial curve] |  |
| CCOCCCNC(=O)c1oc2ccc(S(=O)(=O)N3CCOCC3)cc2c1C | 14.1 µM [rising, single point] |  |
| COc1ccc(CSc2nc(N3CCOCC3)c3c(c2C#N)CC(C)(C)OC3)cc1 | 0.0731 µM [rising, full curve, poor fit] |  |
| O=C(CN1C(=O)S/C(=C\c2cc(Cl)c(O)c(Cl)c2)C1=O)Nc1ccccc1 | 35.5 µM [falling, single point] |  |
| Cc1ccc(C)c(N(CC(=O)NC2CCCCC2)C(=O)c2snc(C(N)=O)c2N)c1 | 3.55 µM [falling, single point] |  |
| CCOC(=O)C1CCCN(C(=O)c2cc(S(=O)(=O)Nc3ccccc3OC)ccc2C)C1 (configuration not stated) | 17.8 µM [falling, partial curve, poor fit] |  |
| CC(C)Cn1c(N)c(C(=O)NCc2cccs2)c2nc3ccccc3nc21 | 13 µM [falling, partial curve] | 5.8 µM [rising, partial curve, poor fit] |
| COc1cccc(-c2nnc3sc(-c4cccs4)nn23)c1 | 3.98 µM [falling, partial curve, poor fit] |  |
| COc1cc(C(=O)NCCCc2ccccc2)cc(OC)c1OC | 1.78 µM [falling, partial curve, poor fit] |  |
| COc1ccccc1/C=C/C(=O)N1CCC(c2ccccc2)C1 (configuration not stated) | 1.84 µM [falling, partial curve] |  |

| Compound | AC50 [1] | AC50 [2] |
| --- | --- | --- |
| Cc1sc2ncnc(N/N=C/c3ccccc3O)c2c1C | 0.326 µM [falling, full curve] |  |
| COc1cc(C)nc(NCc2ccccc2)n1 | 23.1 µM [rising, partial curve] | 18.4 µM [falling, partial curve, poor fit] |
| O=c1[nH]c(SCc2ccccc2)nnc1-c1ccccc1 | 1.16 µM [falling, full curve] |  |
| COc1cc(CNC2CCCCC2OC)cc(OC)c1 (configuration not stated) | 7.08 µM [rising, full curve, poor fit] |  |
| Clc1ccc(OCCCCCN2CCOCC2)cc1 | 28.2 µM [rising, partial curve, poor fit] |  |
| Cc1cc(C)cc(OCc2nnc(SCC(=O)c3ccc(Br)cc3)o2)c1 | 8.2 µM [rising, partial curve, poor fit] |  |
| Cc1ccc(C)c(S(=O)(=O)N2CCN(C(=O)CSC(=S)N3CCCC3)CC2)c1 | 4.61 µM [rising, partial curve, poor fit] |  |
| CCOc1ccc(-c2nc(N)ncc2Oc2cccc(OC)c2)c(O)c1 | 29.1 µM [falling, single point] |  |
| Cn1ncc(C(=O)N=S(C)(=O)c2ccccc2)c1[N+](=O)[O-] (configuration not stated) | 10 µM [falling, partial curve] |  |
| O=C(Nc1ccccc1Cl)C1Cc2ccccc2O/C1=N\O (configuration not stated) | 3.98 µM [rising, full curve, poor fit] |  |
| CC(C)(C)NC(=O)COC(=O)c1ccccc1Nc1ccc(SC(F)F)cc1 | 18.4 µM [falling, single point] |  |
| Fc1ccc(C2=Nn3c(nnc3-c3n[nH]c4c3CCC4)SC2)cc1 | 12.6 µM [rising, partial curve, poor fit] | 2.82 µM [falling, full curve, poor fit] |
| C/C(=N\Nc1ncc(Cl)cc1Cl)c1ccc(C#N)cc1 | 35.5 µM [rising, partial curve, poor fit] |  |
| Oc1ccc(CNc2cccc(F)c2F)c2cccnc12 | 2.06 µM [rising, partial curve] | 3.66 µM [falling, partial curve, poor fit] |
| Cc1ccc(S(=O)(=O)N2C/C=C\CN(S(=O)(=O)c3ccccc3Br)CC2)cc1 | 29.1 µM [rising, single point] |  |
| Cn1nc(-c2ccccc2F)c2cc(C(=O)Nc3ccc4c(c3)OCCO4)sc21 | 2.59 µM [rising, single point] |  |
| O=C(N1CCCC1)C12CC3CC(C1)CC(C(=O)N1CCCC1)(C3)C2 | 12.6 µM [rising, single point] |  |
| CCN(CC)CCCn1c2c(c(SCC(=O)Nc3cc(OC)cc(OC)c3)nc1=O)CCC2 | 16.4 µM [falling, partial curve] |  |
| COc1ccc(C(=O)CC(=O)c2ccccc2O)cc1OC | 3.55 µM [rising, partial curve, poor fit] |  |
| O=C(/C=C/c1ccco1)NC(=S)NNC(=O)c1ccco1 | 11.6 µM [falling, partial curve] |  |
| O=C(NCCSc1ccccc1)c1cccnc1 | 2.24 µM [rising, full curve, poor fit] |  |

| Compound | AC50 [1] | AC50 [2] |
| --- | --- | --- |
| Cc1cccc(-n2c(C)cc(/C=C3/C(=N)N4C(c5ccccc5)=CSC4=NC3=O)c2C)c1 | 0.00411 µM [rising, full curve, poor fit] |  |
| OCCC1CN(Cc2cc(F)ccc2-n2cccn2)CCN1C1CCCC1 (configuration not stated) | 8.91 µM [rising, partial curve, poor fit] |  |
| COC(=O)c1ccc(CSc2nnc(NC(=O)C3CC(=O)N(Cc4ccc(C)cc4)C3)s2)cc1 (configuration not stated) | 1.64 µM [rising, partial curve, poor fit] |  |
| Cn1c(N)c(C(=O)COC(=O)[C@H](Cc2ccccc2)N2C(=O)c3ccccc3C2=O)c(=O)n(C)c1=O | 1.16 µM [rising, full curve, poor fit] |  |
| CSc1ccc(CN2C(=O)NC3(CCCCCCC3)C2=O)cc1 | 17.8 µM [rising, partial curve, poor fit] |  |
| Cc1oc(-c2ccccc2)cc1C(=O)NCc1ccncc1 | 2.24 µM [rising, full curve] |  |
| Cc1nc([N+](=O)[O-])c(Sc2nc3ccccc3[nH]2)n1Cc1ccccc1 | 7.31 µM [falling, partial curve, poor fit] |  |
| O=C(N/N=C/c1ccccc1O)C(=O)Nc1ccccn1 | 1.41 µM [falling, full curve] |  |
| CC1=NN(C(N)=S)C(=O)C1N=Nc1cccc2ccccc12 (configuration not stated) | 7.08 µM [rising, full curve, poor fit] |  |
| O=[N+]([O-])c1ccc(N=Nc2c(Cl)cc(O)cc2Cl)cc1 | 0.447 µM [rising, partial curve, poor fit] |  |
| CSc1cccc(NC(=S)N2CCCN(Cc3cccc(Cl)c3)C2)c1 | 35.5 µM [falling, single point] |  |
| N/C(CCS(=O)(=O)c1ccc(Cl)cc1)=N\OC(=O)c1ccccc1Cl | 17.8 µM [rising, partial curve, poor fit] |  |
| O=C(Nc1cc2c3c(c1)CC(=O)N3CCC2)C1CC1 | 18.4 µM [rising, partial curve] |  |
| CCS(=O)(=O)c1nc(S(=O)(=O)c2ccc(C)cc2)c(N2CCC3(CC2)OCCO3)s1 | 17.8 µM [falling, partial curve, poor fit] |  |
| O=S1(=O)CC(O)C(N(CCO)C(=S)Nc2ccccc2)C1 (configuration not stated) | 15.8 µM [rising, single point] |  |
| Cc1cccc(N2CCN(S(=O)(=O)c3ccc4c(c3)NC(=O)CS4)CC2)c1C | 7.94 µM [falling, partial curve] |  |
| COCCCn1c(C23CC4CC(CC(C4)C2)C3)n[nH]c1=S | 12.6 µM [rising, single point] |  |
| COc1ccc(/C=C(\C#N)C(=O)OC2CCOC2=O)cc1 (configuration not stated) | 2.51 µM [rising, full curve, poor fit] |  |
| COc1ccc(NC(=O)c2ccc3c(c2)NC(=O)CS3)cc1S(=O)(=O)Nc1ccc(Br)cc1 | 22.4 µM [falling, single point] |  |
| O=C(CCN1CCCCC1)NNC(=S)NC(=O)c1ccc(Br)cc1 | 35.5 µM [falling, single point] |  |
| O=C1C=C(c2ccc3[nH]ccc3c2)C[C@@H](c2ccc(F)cc2)C1 | 0.58 µM [rising, full curve] |  |

Five records picked at random from those above, as already listed:

| Compound | AC50 [1] | AC50 [2] |
| --- | --- | --- |
| Cc1nc([N+](=O)[O-])c(Sc2nc3ccccc3[nH]2)n1Cc1ccccc1 | 7.31 µM [falling, partial curve, poor fit] |  |
| O=[N+]([O-])c1ccc(N=Nc2c(Cl)cc(O)cc2Cl)cc1 | 0.447 µM [rising, partial curve, poor fit] |  |
| CCS(=O)(=O)c1nc(S(=O)(=O)c2ccc(C)cc2)c(N2CCC3(CC2)OCCO3)s1 | 17.8 µM [falling, partial curve, poor fit] |  |
| COc1ccc(/C=C(\C#N)C(=O)OC2CCOC2=O)cc1 (configuration not stated) | 2.51 µM [rising, full curve, poor fit] |  |
| Cc1cccc(-n2c(C)cc(/C=C3/C(=N)N4C(c5ccccc5)=CSC4=NC3=O)c2C)c1 | 0.00411 µM [rising, full curve, poor fit] |  |
